Laboratory results reported in patent publication US20180340937A1, “Phosphoinositide (4,5) Bisphosphate as a Diagnostic Tool and Target for Cancer Treatment” (priority 2015, published 2018).
For at least one compound, name, drawing or mass did not settle the structure.

Tests used:
[1] = system: MDA-MB-231 cells; experiment: iRap rapamycin-inducible system, PI(4,5)P2 depletion in MDA-MB-231 cells; type: cell-based
[2] = system: HUVECs; experiment: iRap system with GFP-F-tractin in HUVECs; type: cell-based; conditions: HUVECs transfected with iRap and GFP-F-tractin; before and after rapamycin

With `CO[C@H]1C[C@@H]2CC[C@@H](C)[C@@](O)(O2)C(=O)C(=O)N2CCCC[C@H]2C(=O)O[C@H]([C@H](C)C[C@@H]2CC[C@@H](O)[C@H](OC)C2)CC(=O)[C@H](C)/C=C(\C)[C@@H](O)[C@@H](OC)C(=O)[C@H](C)C[C@H](C)/C=C/C=C/C=C/1C` [rapamycin] the “stress fibers (GFP-F-tractin)” value ([1]; cells co-transfected with iRap system and GFP-F-tractin, ~2 mins after addition of rapamycin) was “disappearance of stress fibers”, the GFP-AldoA localization ([1]; cells co-transfected with iRap system, MyosinII-RLC and GFP-AldoA, ~2 mins after addition of rapamycin) was “redistribution of GFP-AldoA to the cytosol” and the “plasma membrane PI(4,5)P2 (PLC(d)-GFP redistribution)” value ([1]; cells expressing iRap system, approximately 1 minute after addition of 2 mM rapamycin) was “depletion of PM PI(4,5)P2”. The “membrane protrusions (GFP-F-tractin)” value [2] was “formation of membrane protrusions”.
